Experimental data reported in paper PMC5422876.
Results are given in words; binding and its absence hold for the method and conditions named. In cells and extracts the contact can be indirect. Some results given as binding are weak or reduced against the parent protein; the word gives no strength.

Biological target: T1, tumor growth factor β (TGF-β) activated kinase 1 (TAK1) (mouse (endogenous in 3T3-L1)) (UniProt Q62073)
T1 sequence: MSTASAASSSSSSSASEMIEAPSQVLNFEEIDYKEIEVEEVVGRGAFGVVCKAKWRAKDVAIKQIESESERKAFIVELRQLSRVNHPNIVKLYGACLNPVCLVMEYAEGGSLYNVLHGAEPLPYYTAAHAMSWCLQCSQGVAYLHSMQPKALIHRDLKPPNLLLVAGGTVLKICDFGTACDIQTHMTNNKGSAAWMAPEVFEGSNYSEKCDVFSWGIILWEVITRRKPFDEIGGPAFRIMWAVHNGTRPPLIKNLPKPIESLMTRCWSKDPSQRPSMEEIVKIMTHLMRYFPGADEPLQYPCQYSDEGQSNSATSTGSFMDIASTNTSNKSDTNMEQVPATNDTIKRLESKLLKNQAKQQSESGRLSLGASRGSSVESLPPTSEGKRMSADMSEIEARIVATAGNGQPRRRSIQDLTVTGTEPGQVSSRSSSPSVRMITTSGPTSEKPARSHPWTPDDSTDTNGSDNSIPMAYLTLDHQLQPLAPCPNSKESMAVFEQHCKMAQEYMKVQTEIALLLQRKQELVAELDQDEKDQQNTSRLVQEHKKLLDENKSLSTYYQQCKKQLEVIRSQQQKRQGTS
Assay: co-IP; Universal Magnetic Co-IP kit (Active Motif); cytosolic fraction of 3T3-L1 adipocytes exposed to 250 μM palmitate with or without pretreatment with 50 μM EPA-Na; immune complexes analysed by western blotting; control mouse IgG

binding: binds
B1: TGF-β activated kinase 1 binding protein 1 (TAB1) (protein, UniProt Q8CF89 1-502)
chain: MAAQRRSLLQSEQQPSWTDDLPLCHLSGVGSASNRSYSADGKGTESHPPEDNWLKFRSENNCFLYGVFNGYDGNRVTNFVAQRLSAELLLGQLNTEHTEADVRRVLLQAFDVVERSFLESIDDALAEKASLQSQLPEGVPQHQLPPQYQKILERLKALEREISGGAMAVVAVLLNSKLYVANVGTNRALLCKSTVDGLQVTQLNMDHTTENEDELFRLSQLGLDAGKIKQMGVICGQESTRRIGDYKVKYGYTDIDLLSAAKSKPIIAEPEIHGAQPLDGVTGFLVLMSEGLYKALEAAHGPGQANQEIAAMIDTEFAKQTSLDAVAQAVVDRVKRIHSDTFASGGERAKFCPRHEDMTLLVRNFGYPLGEMSQPTPTPAPGGRVYPVSVPYSSAQSTSKTSVTLSLVMPSQGQMVNGSHSASTLDEATPTLTNQSPTLTLQSTNTHTQSSSSSSDGGLFRSRPAHSLPPGEDGRVEPYVDFAEFYRLWSVDHGEQSVMTAP
